In PMC3601965, “Conformational Change-Induced Repeat Domain Expansion Regulates Rap Phosphatase Quorum-Sensing Signal Receptors” (PLoS Biology, 2013):
Results are given in words; binding and its absence hold for the method and conditions named.

What was measured:
[1] = biological target: T1, RapJ (B. subtilis strain 168), O34327; test: AUC; sedimentation equilibrium, RapJ at 50 µM with PhrC at 500 µM in 20 mM Tris-HCl pH 8.0, 150 mM KCl, 5 mM MgCl2, 5 mM DTT, 13,000 rpm; both purified; conditions: remark: other sources report otherwise
T1 chain: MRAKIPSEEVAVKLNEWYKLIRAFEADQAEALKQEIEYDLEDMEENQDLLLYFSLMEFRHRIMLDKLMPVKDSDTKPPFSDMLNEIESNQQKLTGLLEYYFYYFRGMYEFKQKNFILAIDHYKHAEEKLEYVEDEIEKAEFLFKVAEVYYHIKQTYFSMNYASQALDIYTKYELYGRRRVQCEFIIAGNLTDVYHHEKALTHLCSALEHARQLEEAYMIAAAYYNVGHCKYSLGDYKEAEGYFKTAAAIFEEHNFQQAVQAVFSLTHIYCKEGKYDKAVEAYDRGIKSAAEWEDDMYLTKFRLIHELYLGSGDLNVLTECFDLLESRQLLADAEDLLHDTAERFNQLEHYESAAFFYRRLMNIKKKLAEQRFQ

[2] = biological target: T1, RapJ (B. subtilis strain 168), O34327; test: AUC; sedimentation equilibrium, RapJ alone at 50 µM in 20 mM Tris-HCl pH 8.0, 150 mM KCl, 5 mM MgCl2, 5 mM DTT, 13,000 rpm; both purified; conditions: remark: other sources report otherwise

- binding [1]: no binding (tested: 50 µM)
- binding [2]: no binding (tested: 50 µM)
B1: RapJ, O34327 1-373 (enzyme)
chain: MRAKIPSEEVAVKLNEWYKLIRAFEADQAEALKQEIEYDLEDMEENQDLLLYFSLMEFRHRIMLDKLMPVKDSDTKPPFSDMLNEIESNQQKLTGLLEYYFYYFRGMYEFKQKNFILAIDHYKHAEEKLEYVEDEIEKAEFLFKVAEVYYHIKQTYFSMNYASQALDIYTKYELYGRRRVQCEFIIAGNLTDVYHHEKALTHLCSALEHARQLEEAYMIAAAYYNVGHCKYSLGDYKEAEGYFKTAAAIFEEHNFQQAVQAVFSLTHIYCKEGKYDKAVEAYDRGIKSAAEWEDDMYLTKFRLIHELYLGSGDLNVLTECFDLLESRQLLADAEDLLHDTAERFNQLEHYESAAFFYRRLMNIKKKLAEQRFQ
